This is one part of the list.
Assays:
Assay in all cases: log2 fold change, soluble protein after heating vs DMSO (PISA); higher = thermal stabilisation; K562 lysate, 10 uM; active = over 0.2 and 3.5 SD of the protein, either way, in both replicates (recomputed)
vemurafenib = compound: CCCS(=O)(=O)Nc1ccc(F)c(C(=O)c2c[nH]c3ncc(-c4ccc(Cl)cc4)cc23)c1F [vemurafenib]
Outline: (§1)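 K562 pellets were dounce-homogenised in PBS pH 7.4 with 1 mM MgCl2, and the crude extract at 1 mg/mL protein was treated with 10 μM compound for 30 min. Aliquots were heated for 3 min across 48°C-58°C, pooled, and brought to 0.5% NP-40 at 4°C; soluble protein was the supernatant after 21,000xg for 90 min. Soluble protein was quantified by TMTpro 16plex LC-MS/MS with channel sums equalised, and reported as log2 fold change in thermal stability against DMSO controls, with values from duplicates.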

Sequences of proteins named here, by UniProt entry; tags and fusion partners are left off. A change or cut given only in a name is not applied to a line headed by its entry.
UniProt Q9BSU3: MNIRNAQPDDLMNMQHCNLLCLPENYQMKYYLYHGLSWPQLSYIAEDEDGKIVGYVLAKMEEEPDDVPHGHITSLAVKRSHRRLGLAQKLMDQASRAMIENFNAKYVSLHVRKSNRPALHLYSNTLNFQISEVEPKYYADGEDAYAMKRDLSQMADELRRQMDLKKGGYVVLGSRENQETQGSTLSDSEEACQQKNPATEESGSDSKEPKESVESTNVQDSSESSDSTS
UniProt O75113: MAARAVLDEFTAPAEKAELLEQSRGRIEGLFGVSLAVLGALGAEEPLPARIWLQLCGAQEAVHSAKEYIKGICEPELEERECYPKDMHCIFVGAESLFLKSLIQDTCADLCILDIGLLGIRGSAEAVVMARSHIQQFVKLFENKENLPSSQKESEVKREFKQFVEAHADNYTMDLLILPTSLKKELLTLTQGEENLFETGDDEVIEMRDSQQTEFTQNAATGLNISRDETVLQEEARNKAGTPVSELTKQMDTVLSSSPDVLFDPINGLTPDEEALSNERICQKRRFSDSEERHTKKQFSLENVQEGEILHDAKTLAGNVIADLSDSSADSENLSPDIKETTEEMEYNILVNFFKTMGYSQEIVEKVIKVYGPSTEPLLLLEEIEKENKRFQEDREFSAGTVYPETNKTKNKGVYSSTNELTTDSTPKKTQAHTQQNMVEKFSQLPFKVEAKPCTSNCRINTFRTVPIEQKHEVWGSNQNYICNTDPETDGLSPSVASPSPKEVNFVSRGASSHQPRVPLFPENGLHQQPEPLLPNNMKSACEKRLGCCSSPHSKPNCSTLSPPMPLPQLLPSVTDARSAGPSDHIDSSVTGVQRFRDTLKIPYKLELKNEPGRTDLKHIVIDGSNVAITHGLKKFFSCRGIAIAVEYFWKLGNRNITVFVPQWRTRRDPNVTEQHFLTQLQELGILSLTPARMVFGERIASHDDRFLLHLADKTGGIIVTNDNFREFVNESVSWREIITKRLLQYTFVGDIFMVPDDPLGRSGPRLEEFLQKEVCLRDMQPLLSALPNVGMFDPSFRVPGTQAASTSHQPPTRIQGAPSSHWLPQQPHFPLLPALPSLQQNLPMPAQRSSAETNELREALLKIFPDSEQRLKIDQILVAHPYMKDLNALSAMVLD
UniProt Q69YL0: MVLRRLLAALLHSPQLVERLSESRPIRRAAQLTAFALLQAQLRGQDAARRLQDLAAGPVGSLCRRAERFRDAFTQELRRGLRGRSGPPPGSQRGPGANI
UniProt P43490: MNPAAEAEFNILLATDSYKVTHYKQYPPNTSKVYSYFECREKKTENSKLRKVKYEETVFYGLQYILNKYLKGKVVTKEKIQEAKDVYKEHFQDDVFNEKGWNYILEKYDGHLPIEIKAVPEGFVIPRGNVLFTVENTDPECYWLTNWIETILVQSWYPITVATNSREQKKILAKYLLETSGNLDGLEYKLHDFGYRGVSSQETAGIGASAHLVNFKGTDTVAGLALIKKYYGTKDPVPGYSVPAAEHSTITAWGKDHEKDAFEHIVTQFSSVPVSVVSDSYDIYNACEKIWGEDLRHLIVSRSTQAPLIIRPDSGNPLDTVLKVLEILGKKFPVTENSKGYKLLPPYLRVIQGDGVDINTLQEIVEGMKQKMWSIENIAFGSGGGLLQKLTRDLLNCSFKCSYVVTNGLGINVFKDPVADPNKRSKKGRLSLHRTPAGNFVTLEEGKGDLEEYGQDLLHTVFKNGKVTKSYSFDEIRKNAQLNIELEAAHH
UniProt Q14CX7, whole entry, looked up: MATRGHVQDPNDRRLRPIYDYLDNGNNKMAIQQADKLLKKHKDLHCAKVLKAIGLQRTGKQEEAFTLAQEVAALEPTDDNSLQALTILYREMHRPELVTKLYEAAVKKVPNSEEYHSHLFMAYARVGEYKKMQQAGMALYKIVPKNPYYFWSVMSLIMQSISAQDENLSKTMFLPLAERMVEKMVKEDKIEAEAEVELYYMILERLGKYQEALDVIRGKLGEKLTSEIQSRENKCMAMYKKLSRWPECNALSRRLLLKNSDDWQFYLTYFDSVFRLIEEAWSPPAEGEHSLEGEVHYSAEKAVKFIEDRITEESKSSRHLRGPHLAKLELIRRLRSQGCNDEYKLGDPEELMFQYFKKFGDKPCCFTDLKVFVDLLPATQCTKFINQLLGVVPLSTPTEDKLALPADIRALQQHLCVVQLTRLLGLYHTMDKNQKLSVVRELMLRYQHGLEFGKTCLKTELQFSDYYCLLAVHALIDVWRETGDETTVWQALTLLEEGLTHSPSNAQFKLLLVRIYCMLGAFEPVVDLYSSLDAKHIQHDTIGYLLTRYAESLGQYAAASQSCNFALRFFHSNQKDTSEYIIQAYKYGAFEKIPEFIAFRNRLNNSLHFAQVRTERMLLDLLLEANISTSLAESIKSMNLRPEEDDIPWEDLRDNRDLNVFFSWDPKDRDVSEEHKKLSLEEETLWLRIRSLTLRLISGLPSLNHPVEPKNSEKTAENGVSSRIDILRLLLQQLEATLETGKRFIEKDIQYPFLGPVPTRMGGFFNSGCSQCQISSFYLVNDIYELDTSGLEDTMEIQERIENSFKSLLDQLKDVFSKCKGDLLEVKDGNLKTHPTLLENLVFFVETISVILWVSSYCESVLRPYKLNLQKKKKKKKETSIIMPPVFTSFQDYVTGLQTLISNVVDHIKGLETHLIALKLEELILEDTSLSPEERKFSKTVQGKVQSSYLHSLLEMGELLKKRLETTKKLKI
UniProt P19338, whole entry, looked up: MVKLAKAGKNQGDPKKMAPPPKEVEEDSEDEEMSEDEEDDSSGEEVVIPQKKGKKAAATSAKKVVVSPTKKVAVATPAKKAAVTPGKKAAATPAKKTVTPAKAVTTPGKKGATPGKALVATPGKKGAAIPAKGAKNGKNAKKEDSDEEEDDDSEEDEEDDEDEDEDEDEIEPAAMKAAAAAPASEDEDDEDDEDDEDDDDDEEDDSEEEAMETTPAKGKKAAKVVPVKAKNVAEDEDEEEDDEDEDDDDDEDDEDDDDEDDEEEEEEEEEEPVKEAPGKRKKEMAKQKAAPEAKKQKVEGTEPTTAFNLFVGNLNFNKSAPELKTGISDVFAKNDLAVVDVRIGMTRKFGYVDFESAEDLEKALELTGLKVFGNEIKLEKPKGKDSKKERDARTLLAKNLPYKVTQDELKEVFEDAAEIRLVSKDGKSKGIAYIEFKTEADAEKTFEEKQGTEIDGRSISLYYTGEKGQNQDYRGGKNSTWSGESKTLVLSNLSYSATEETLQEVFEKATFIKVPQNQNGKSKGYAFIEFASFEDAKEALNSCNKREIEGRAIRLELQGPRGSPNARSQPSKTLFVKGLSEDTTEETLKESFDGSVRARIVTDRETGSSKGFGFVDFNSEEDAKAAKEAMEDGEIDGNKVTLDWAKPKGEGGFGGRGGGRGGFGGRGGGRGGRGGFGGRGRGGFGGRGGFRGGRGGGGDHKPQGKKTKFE
UniProt O94832: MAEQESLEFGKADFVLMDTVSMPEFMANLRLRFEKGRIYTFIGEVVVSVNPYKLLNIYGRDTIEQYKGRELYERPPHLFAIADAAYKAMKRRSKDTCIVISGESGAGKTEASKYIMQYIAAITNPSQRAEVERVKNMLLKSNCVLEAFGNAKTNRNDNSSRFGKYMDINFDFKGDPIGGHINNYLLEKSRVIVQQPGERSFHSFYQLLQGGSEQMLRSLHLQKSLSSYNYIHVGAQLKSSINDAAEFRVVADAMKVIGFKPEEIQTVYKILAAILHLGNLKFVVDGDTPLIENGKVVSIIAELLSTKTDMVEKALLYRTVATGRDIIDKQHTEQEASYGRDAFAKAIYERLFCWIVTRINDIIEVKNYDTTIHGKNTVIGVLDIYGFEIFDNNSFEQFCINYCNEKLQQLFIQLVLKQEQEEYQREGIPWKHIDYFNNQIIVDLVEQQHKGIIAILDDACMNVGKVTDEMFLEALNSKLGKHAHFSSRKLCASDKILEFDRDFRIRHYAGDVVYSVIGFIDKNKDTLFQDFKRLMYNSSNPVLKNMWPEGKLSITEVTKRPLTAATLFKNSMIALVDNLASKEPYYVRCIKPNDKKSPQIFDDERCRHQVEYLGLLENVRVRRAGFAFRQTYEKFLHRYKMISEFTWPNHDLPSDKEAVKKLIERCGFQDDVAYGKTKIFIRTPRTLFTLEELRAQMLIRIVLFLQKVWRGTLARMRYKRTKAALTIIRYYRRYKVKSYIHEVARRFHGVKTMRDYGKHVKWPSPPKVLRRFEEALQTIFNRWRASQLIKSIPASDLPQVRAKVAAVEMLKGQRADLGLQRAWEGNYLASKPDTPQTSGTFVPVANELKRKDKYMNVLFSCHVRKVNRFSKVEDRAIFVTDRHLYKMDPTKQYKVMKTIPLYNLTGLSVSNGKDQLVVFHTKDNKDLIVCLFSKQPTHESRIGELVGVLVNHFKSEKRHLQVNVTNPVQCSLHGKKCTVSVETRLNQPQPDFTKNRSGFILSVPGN
UniProt Q7Z406, whole entry, looked up: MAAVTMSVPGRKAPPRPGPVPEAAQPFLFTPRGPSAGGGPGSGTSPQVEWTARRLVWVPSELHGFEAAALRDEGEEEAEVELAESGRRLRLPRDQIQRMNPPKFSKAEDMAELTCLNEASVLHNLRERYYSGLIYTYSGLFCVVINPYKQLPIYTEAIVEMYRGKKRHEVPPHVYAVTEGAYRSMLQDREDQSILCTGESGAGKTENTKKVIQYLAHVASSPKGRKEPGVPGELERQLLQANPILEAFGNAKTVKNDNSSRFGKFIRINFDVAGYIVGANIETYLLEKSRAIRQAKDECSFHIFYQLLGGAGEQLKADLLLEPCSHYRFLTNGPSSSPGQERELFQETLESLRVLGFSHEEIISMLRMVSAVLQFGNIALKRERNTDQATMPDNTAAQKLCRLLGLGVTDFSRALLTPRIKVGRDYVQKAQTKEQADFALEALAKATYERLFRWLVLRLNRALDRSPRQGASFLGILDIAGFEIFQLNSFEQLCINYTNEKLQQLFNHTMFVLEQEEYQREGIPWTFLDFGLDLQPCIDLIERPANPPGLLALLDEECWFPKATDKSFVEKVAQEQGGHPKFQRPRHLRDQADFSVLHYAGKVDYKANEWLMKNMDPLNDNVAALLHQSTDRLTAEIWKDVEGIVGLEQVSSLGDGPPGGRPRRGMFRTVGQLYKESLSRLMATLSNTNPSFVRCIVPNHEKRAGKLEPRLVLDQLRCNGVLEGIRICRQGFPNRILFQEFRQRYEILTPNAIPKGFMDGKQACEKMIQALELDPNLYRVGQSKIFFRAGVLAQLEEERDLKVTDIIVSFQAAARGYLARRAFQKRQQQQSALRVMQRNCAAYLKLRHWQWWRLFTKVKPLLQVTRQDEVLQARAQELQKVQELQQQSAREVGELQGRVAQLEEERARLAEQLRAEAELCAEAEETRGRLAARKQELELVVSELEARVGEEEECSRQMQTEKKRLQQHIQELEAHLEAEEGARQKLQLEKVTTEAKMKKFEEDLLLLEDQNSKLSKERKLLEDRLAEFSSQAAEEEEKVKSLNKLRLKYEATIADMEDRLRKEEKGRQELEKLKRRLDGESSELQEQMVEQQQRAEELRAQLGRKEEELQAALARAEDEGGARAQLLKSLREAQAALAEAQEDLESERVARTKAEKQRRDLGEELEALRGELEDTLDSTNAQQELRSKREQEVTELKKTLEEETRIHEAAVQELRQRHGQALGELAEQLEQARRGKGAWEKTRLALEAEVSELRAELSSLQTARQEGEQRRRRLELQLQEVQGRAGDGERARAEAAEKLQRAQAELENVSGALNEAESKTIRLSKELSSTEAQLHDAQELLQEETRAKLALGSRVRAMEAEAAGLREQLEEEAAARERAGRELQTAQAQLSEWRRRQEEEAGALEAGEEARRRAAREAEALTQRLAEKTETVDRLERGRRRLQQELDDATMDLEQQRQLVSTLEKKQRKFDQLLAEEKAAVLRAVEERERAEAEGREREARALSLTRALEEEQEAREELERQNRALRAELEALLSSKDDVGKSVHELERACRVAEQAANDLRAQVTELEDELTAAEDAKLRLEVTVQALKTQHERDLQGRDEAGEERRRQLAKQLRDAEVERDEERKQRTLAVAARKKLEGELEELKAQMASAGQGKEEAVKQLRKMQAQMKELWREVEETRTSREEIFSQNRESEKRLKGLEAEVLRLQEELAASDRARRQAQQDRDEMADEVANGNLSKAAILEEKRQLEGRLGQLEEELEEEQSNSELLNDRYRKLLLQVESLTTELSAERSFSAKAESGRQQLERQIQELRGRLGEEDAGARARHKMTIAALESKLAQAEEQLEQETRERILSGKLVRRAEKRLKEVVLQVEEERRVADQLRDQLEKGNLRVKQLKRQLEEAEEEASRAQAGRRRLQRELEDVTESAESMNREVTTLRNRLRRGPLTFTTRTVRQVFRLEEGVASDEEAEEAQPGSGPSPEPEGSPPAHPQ

[1] = compound: CCCS(=O)(=O)Nc1ccc(F)c(C(=O)c2c[nH]c3ncc(Cl)cc23)c1F
Outline: as §1

barasertib = compound: CCN(CCCOc1ccc2c(Nc3cc(CC(=O)Nc4cccc(F)c4)[nH]n3)ncnc2c1)CCOP(=O)(O)O [barasertib]
Outline: as §1

[2] = compound: CC[C@@H]1C(=O)N(C)c2cnc(Nc3ccc(C(=O)NC4CCN(C)CC4)cc3OC)nc2N1C1CCCC1
Outline: as §1

volasertib = compound: CC[C@@H]1C(=O)N(C)c2cnc(Nc3ccc(C(=O)N[C@H]4CC[C@H](N5CCN(CC6CC6)CC5)CC4)cc3OC)nc2N1C(C)C [volasertib]
Outline: as §1

[3] = compound: CCn1c(C(=O)N(C2CC2)C2CC2)cc2c3c(ncn3C)c(Nc3cc(C)n(C)n3)nc21
Outline: as §1

[4] = compound: CCn1cc(-c2ccnc3[nH]c(-c4cccc(CN(C)C)c4)cc23)c(-c2ccc(NC(=O)N(C)C)cc2)n1
Outline: as §1

[5] = compound: CN1CCC(CNc2ccc3ncc(-c4cccc(OC(F)(F)F)c4)n3n2)CC1
Outline: as §1

saracatinib = compound: CN1CCN(CCOc2cc(OC3CCOCC3)c3c(Nc4c(Cl)ccc5c4OCO5)ncnc3c2)CC1 [saracatinib]
Outline: as §1

sotrastaurin = compound: CN1CCN(c2nc(C3=C(c4c[nH]c5ccccc45)C(=O)NC3=O)c3ccccc3n2)CC1 [sotrastaurin]
Outline: as §1

alvocidib = compound: CN1CC[C@H](c2c(O)cc(O)c3c(=O)cc(-c4ccccc4Cl)oc23)[C@H](O)C1 [alvocidib]
Outline: as §1

Tubastatin A = compound: CN1CCc2c(c3ccccc3n2Cc2ccc(C(=O)NO)cc2)C1 [Tubastatin A]
Outline: as §1

[6] = compound: CNC(=O)C1=CC=CC=C1NC2=NC(=NC=C2Cl)NC3=C(C=C(C=C3)N4CCOCC4)OC
Outline: as §1

defactinib = compound: CNC(=O)c1ccc(Nc2ncc(C(F)(F)F)c(NCc3nccnc3N(C)S(C)(=O)=O)n2)cc1 [defactinib]
Outline: as §1

[7] = compound: CNc1nc(-c2ccc3c(N)n[nH]c3c2)cc(N2C[C@@H](C(=O)NC3CCCCC3)CC[C@H]2C)n1
Outline: as §1

encorafenib = compound: COC(=O)N[C@@H](C)CNc1nccc(-c2cn(C(C)C)nc2-c2cc(Cl)cc(NS(C)(=O)=O)c2F)n1 [encorafenib]
Outline: as §1

[8] = compound: COC(=O)[C@H](CCSC)NC(=O)C1=C(C=C(C=C1)NC[C@H](CS)N)C2=CC=CC=C2
Outline: as §1

alisertib = compound: COc1cc(Nc2ncc3c(n2)-c2ccc(Cl)cc2C(c2c(F)cccc2OC)=NC3)ccc1C(=O)O [alisertib]
Outline: as §1

[9] = compound: COc1cc2nc(-c3cc(F)ccc3O)nc(N[C@@H]3CNC[C@H]3C(C)(C)O)c2cc1OC
Outline: as §1

gefitinib = compound: COc1cc2ncnc(Nc3ccc(F)c(Cl)c3)c2cc1OCCCN1CCOCC1 [gefitinib]
Outline: as §1

Measured: log2 fold change

NAA11 (UniProt Q9BSU3)
inactive: vemurafenib -0.033 | [1] 0.005 | barasertib -0.083 | [2] 0.017 | volasertib -0.006 | [3] -0.025 | [4] 0.081 | [5] -0.032 | saracatinib 0.054 | sotrastaurin 0.038 | alvocidib -0.03 | Tubastatin A -0.059 | [6] 0.061 | defactinib 0.026 | [7] 0.191 | encorafenib 0.003 | [8] -0.007 | alisertib 0.037 | [9] -0.025 | gefitinib -0.028

N4BP1 (UniProt O75113)
inactive: vemurafenib -0.008 | [1] 0.007 | barasertib 0.006 | [2] -0.04 | volasertib 0.001 | [3] 0 | [4] 0.018 | [5] -0.035 | saracatinib 0.004 | sotrastaurin -0.006 | alvocidib 0.011 | Tubastatin A -0.041 | [6] -0.002 | defactinib 0.079 | [7] -0.045 | encorafenib 0.012 | [8] -0.052 | alisertib -0.043 | [9] 0.076 | gefitinib 0.041

NCBP2AS2 (UniProt Q69YL0)
inactive: vemurafenib -0.047 | [1] 0.108 | barasertib 0.028 | [2] -0.005 | volasertib -0.002 | [3] -0.064 | [4] 0.035 | [5] -0.311 | saracatinib 0.103 | sotrastaurin 0 | alvocidib 0.054 | Tubastatin A 0.178 | [6] -0.059 | defactinib -0.125 | [7] -0.093 | encorafenib 0.003 | [8] 0.201 | alisertib 0.06 | [9] -0.241 | gefitinib -0.084

NAMPT (UniProt P43490)
inactive: vemurafenib -0.045 | [1] -0.015 | barasertib -0.014 | [2] -0.036 | volasertib 0.03 | [3] 0.004 | [4] 0.031 | [5] 0.116 | saracatinib -0.012 | sotrastaurin 0.044 | alvocidib 0.052 | Tubastatin A 0.053 | [6] 0.005 | defactinib 0.001 | [7] -0.018 | encorafenib -0.039 | [8] -0.049 | alisertib 0.011 | [9] 0.008 | gefitinib 0.062

NAA25 (UniProt Q14CX7)
inactive: vemurafenib -0.014 | [1] 0.009 | barasertib -0.01 | [2] -0.019 | volasertib -0.044 | [3] 0.018 | [4] 0.042 | [5] -0.037 | saracatinib 0.019 | sotrastaurin -0.016 | alvocidib 0.021 | Tubastatin A 0.02 | [6] -0.002 | defactinib 0.034 | [7] -0.031 | encorafenib -0.003 | [8] 0.143 | alisertib 0.007 | [9] -0.026 | gefitinib 0.008

NCAPH (UniProt Q15003)
inactive: vemurafenib -0.015 | [1] 0.001 | barasertib 0.012 | [2] -0.046 | volasertib -0.044 | [3] 0.027 | [4] -0.057 | [5] -0.035 | saracatinib -0.016 | sotrastaurin 0.015 | alvocidib 0.007 | Tubastatin A -0.089 | [6] 0.008 | defactinib 0.015 | [7] 0.023 | encorafenib 0.013 | [8] 0.063 | alisertib 0.015 | [9] 0.018 | gefitinib 0.006

NCK2 (UniProt O43639)
inactive: vemurafenib 0.018 | [1] 0.004 | barasertib 0.076 | [2] -0.146 | volasertib -0.061 | [3] 0.055 | [4] 0.048 | [5] -0.021 | saracatinib 0.024 | sotrastaurin 0.046 | alvocidib 0.04 | Tubastatin A -0.073 | [6] 0.081 | defactinib -0.033 | [7] -0.139 | encorafenib 0.011 | [8] -0.128 | alisertib 0.05 | [9] 0.015 | gefitinib 0.084

NAPRT (UniProt Q6XQN6)
inactive: vemurafenib -0.035 | [1] 0.001 | barasertib -0.027 | [2] -0.049 | volasertib 0 | [3] 0.028 | [4] 0.077 | [5] -0.032 | saracatinib -0.022 | sotrastaurin -0.047 | alvocidib 0.015 | Tubastatin A 0 | [6] -0.009 | defactinib 0.005 | [7] -0.07 | encorafenib 0.007 | [8] -0.022 | alisertib 0.012 | [9] -0.032 | gefitinib 0.021

NADSYN1 (UniProt Q6IA69)
inactive: vemurafenib -0.006 | [1] 0 | barasertib -0.001 | [2] 0.063 | volasertib 0.021 | [3] 0.005 | [4] -0.023 | [5] 0.086 | saracatinib -0.032 | sotrastaurin 0.043 | alvocidib 0.035 | Tubastatin A 0.009 | [6] -0.016 | defactinib 0.017 | [7] 0.035 | encorafenib -0.006 | [8] 0.003 | alisertib -0.035 | [9] 0.027 | gefitinib 0.055

NCDN isoform 3 (UniProt Q9UBB6)
inactive: vemurafenib -0.023 | [1] 0.022 | barasertib 0.007 | [2] -0.038 | volasertib -0.051 | [3] 0.01 | [4] 0.017 | [5] -0.067 | saracatinib 0.042 | sotrastaurin 0.025 | alvocidib 0.025 | Tubastatin A -0.099 | [6] 0.014 | defactinib 0.007 | [7] -0.015 | encorafenib 0.01 | [8] -0.072 | alisertib -0.003 | [9] 0.002 | gefitinib -0.01

MVK (UniProt Q03426)
inactive: vemurafenib 0.007 | [1] 0.002 | barasertib -0.025 | [2] -0.031 | volasertib -0.024 | [3] 0.001 | [4] -0.098 | [5] 0.083 | saracatinib 0.012 | sotrastaurin 0.067 | alvocidib -0.001 | Tubastatin A -0.005 | [6] -0.01 | defactinib -0.026 | [7] -0.006 | encorafenib 0.007 | [8] 0.017 | alisertib 0.005 | [9] -0.013 | gefitinib -0.013

Quoted at random: two records from the list
NADSYN1 (UniProt Q6IA69)
inactive: vemurafenib -0.006 | [1] 0 | barasertib -0.001 | [2] 0.063 | volasertib 0.021 | [3] 0.005 | [4] -0.023 | [5] 0.086 | saracatinib -0.032 | sotrastaurin 0.043 | alvocidib 0.035 | Tubastatin A 0.009 | [6] -0.016 | defactinib 0.017 | [7] 0.035 | encorafenib -0.006 | [8] 0.003 | alisertib -0.035 | [9] 0.027 | gefitinib 0.055

NAA11 (UniProt Q9BSU3)
inactive: vemurafenib -0.033 | [1] 0.005 | barasertib -0.083 | [2] 0.017 | volasertib -0.006 | [3] -0.025 | [4] 0.081 | [5] -0.032 | saracatinib 0.054 | sotrastaurin 0.038 | alvocidib -0.03 | Tubastatin A -0.059 | [6] 0.061 | defactinib 0.026 | [7] 0.191 | encorafenib 0.003 | [8] -0.007 | alisertib 0.037 | [9] -0.025 | gefitinib -0.028

Next part:

NCL (UniProt P19338)
inactive: vemurafenib 0.01 | [1] -0.026 | barasertib -0.016 | [2] -0.008 | volasertib 0.024 | [3] -0.026 | [4] 0.005 | [5] -0.038 | saracatinib -0.001 | sotrastaurin -0.001 | alvocidib 0.029 | Tubastatin A 0.038 | [6] -0.028 | defactinib -0.017 | [7] 0.008 | encorafenib -0.03 | [8] 0.005 | alisertib -0.004 | [9] 0.001 | gefitinib -0.001

MYO1D (UniProt O94832)
inactive: vemurafenib 0.073 | [1] 0.018 | barasertib 0.05 | [2] 0.006 | volasertib -0.003 | [3] -0.002 | [4] -0.05 | [5] -0.035 | saracatinib -0.001 | sotrastaurin 0.041 | alvocidib 0.026 | Tubastatin A -0.091 | [6] -0.006 | defactinib 0.048 | [7] -0.008 | encorafenib 0.058 | [8] -0.012 | alisertib -0.019 | [9] 0.012 | gefitinib -0.016

NAT10 (UniProt Q9H0A0)
inactive: vemurafenib 0.03 | [1] 0.01 | barasertib -0.024 | [2] -0.019 | volasertib -0.02 | [3] -0.012 | [4] 0.01 | [5] -0.036 | saracatinib -0.005 | sotrastaurin 0.036 | alvocidib 0.003 | Tubastatin A -0.033 | [6] -0.015 | defactinib -0.027 | [7] 0.016 | encorafenib 0.012 | [8] 0.031 | alisertib 0.032 | [9] -0.007 | gefitinib -0.017

MYH14 isoform 2 (UniProt Q7Z406)
inactive: vemurafenib 0.059 | [1] 0.06 | barasertib 0.028 | [2] 0.05 | volasertib 0 | [3] -0.012 | [4] -0.026 | [5] 0.024 | saracatinib -0.002 | sotrastaurin 0.04 | alvocidib -0.006 | Tubastatin A 0 | [6] -0.043 | defactinib 0.01 | [7] 0.016 | encorafenib -0.027 | [8] 0.025 | alisertib 0.007 | [9] 0.034 | gefitinib 0.015

NAGK isoform 2 (UniProt Q9UJ70)
inactive: vemurafenib 0.004 | [1] 0.004 | barasertib -0.059 | [2] 0.079 | volasertib 0.037 | [3] 0.023 | [4] -0.108 | [5] 0.067 | saracatinib 0.014 | sotrastaurin 0.016 | alvocidib -0.016 | Tubastatin A 0.016 | [6] 0.043 | defactinib -0.03 | [7] 0.012 | encorafenib 0.005 | [8] -0.032 | alisertib -0.066 | [9] -0.04 | gefitinib 0.018
